# Measured values as given in paper PMC7819943, “Rice protein-binding microarrays: a tool to detect cis-acting elements near promoter regions in rice”.
# By UniProt entry, the sequences of proteins in these tests, tags left out.
# UniProt Q0JBA9, entry or part of it: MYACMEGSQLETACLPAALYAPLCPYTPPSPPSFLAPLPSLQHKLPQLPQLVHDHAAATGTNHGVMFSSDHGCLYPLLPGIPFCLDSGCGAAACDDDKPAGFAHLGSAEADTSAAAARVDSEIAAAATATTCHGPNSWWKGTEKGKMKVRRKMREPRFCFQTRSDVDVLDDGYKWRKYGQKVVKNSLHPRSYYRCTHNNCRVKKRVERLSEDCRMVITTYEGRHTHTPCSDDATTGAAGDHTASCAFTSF
# The other results are listed elsewhere or left out.
# Molecular target: OsWRKY34 (Oryza sativa, UniProt Q0JBA9 1-250)
# Test: protein-binding microarray (RPBM); PBS, 2% BSA, 51.3 ng/ul salmon testes DNA, 50 uM zinc acetate, 200 nM TF, 25 C, 1 h; high values mean tight binding
# Conditions: protein: recombinant; tags: N-terminal polyhistidine and DsRed monomer fusion (pET32a); label: CyDye5-dUTP incorporated in the synthesized complementary strand; 3' TTTTT single-stranded linker to array surface; dsDNA, one strand shown
# How it was run: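 Transcription factors were each fused at the N-terminus to a polyhistidine tag plus DsRed and expressed in E. coli BL21-CodonPlus before Ni–NTA purification. Binding to a double-stranded custom Agilent array was carried out with 200 nM protein at 25 °C for 1 h in PBS, 2% BSA, salmon testes DNA and 50 µM zinc acetate. The binding signal is per-feature fluorescence intensity, in arbitrary units, on an Axon 4000B scanner.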
row,Sequence,binding signal
1,ATACACACCACCGCACCGTATGAAGTAGGGACCACGACACCGGAGTCACCTAGTGCAG,10000 fluorescence intensity (a.u.)
2,ACCGCACCGCCTTCGCACCACACCGGCACATCACCGCCAGCGGAGTCACCTAGTGCAG,9530 fluorescence intensity (a.u.)
3,ACGTTGTTTTGGCATCCTATAGGGGCAATCTCGCATGTGTCGGAGTCACCTAGTGCAG,9850 fluorescence intensity (a.u.)
4,AACAAACACCCGTGTGATTTTGCCCCGTTGTCTCACTGACCGGAGTCACCTAGTGCAG,8940 fluorescence intensity (a.u.)
5,CTCCCCATCTCGGCCTCCTCGCCGCCACCATCCGCCTCTACGGAGTCACCTAGTGCAG,9370 fluorescence intensity (a.u.)
6,GCAGTTTCACCGATAAATTTCTCGCAATCCCATTGACCGCCGGAGTCACCTAGTGCAG,9160 fluorescence intensity (a.u.)
7,GCGGCGCCTCCTGTTTCGCCCCAACCCCGTCCTTCTCCTCCGGAGTCACCTAGTGCAG,8540 fluorescence intensity (a.u.)
8,CCATCACGTCGACCTACGCTGTGCGGAGCTCATCGCCTTCCGGAGTCACCTAGTGCAG,8570 fluorescence intensity (a.u.)
9,CATTGTTCTTCGTCTTTTGTGTCCTTGTTTGATTTGCTGCCGGAGTCACCTAGTGCAG,9850 fluorescence intensity (a.u.)
10,AATTGTGTGTGCTTACCTTTTTCGTTTCCATTGATATCTACGGAGTCACCTAGTGCAG,12400 fluorescence intensity (a.u.)
11,CTTATCTTGGCCACTTGGAATGTGCACTATGTTGATTTGTCGGAGTCACCTAGTGCAG,8680 fluorescence intensity (a.u.)
12,TAACACGTCAGGACAACCACCATTAGCATCTGACAGCTACCGGAGTCACCTAGTGCAG,8260 fluorescence intensity (a.u.)
13,GTCATCTTCTCTGCCCTTTGACGCGGTCTCGCTCGCGACCCGGAGTCACCTAGTGCAG,8280 fluorescence intensity (a.u.)
14,CTAACACTTTCAACCTTTCCAATCGTACAATTGATCCAGCCGGAGTCACCTAGTGCAG,8140 fluorescence intensity (a.u.)
15,AAGTTACTAGATGTAGTGCGATCAGCTGTTTTGCTCTGCCCGGAGTCACCTAGTGCAG,8690 fluorescence intensity (a.u.)
16,CAGGGCGCTCCTCTCTTACCACCGGCCTTATCTTGCATGCCGGAGTCACCTAGTGCAG,9710 fluorescence intensity (a.u.)
17,ACACCGTCTCCTTCTTCAAGGACCTCGGCGCCAACCTCGGCGGAGTCACCTAGTGCAG,8610 fluorescence intensity (a.u.)
18,CGTTTGACCAGATGTTGGAAGGGGTTTTCGGACACGAATGCGGAGTCACCTAGTGCAG,8060 fluorescence intensity (a.u.)
19,GTCGGCCCGCTGGTTTGCTTTCCTCCATCGCTTCACGTAACGGAGTCACCTAGTGCAG,8420 fluorescence intensity (a.u.)
20,CTGTATGTCTTGCATTGTGTGACTGTCTGTGAAGTTGGGACGGAGTCACCTAGTGCAG,9320 fluorescence intensity (a.u.)
21,GCGGTGGAGGCGGAAGGGGTGGGATTAGGCTGTGGCGCGGCGGAGTCACCTAGTGCAG,14000 fluorescence intensity (a.u.)

row,Sequence,binding signal
1,ATGAGGTGACGAAACACTTTACTTTTTTTACTACTTTAGACGGAGTCACCTAGTGCAG,8080 fluorescence intensity (a.u.)
2,CCGCGATGGTTTGTTTGCCACTATTTTATGGCTTGGTTTTCGGAGTCACCTAGTGCAG,11800 fluorescence intensity (a.u.)
3,GTTGCAAGTATCACACCAAGTATCATTTTGCCCTAGTGGACGGAGTCACCTAGTGCAG,8370 fluorescence intensity (a.u.)
4,GGCAAAATTACACTGTATTACAGACCGTTAGTAACGTACACGGAGTCACCTAGTGCAG,8460 fluorescence intensity (a.u.)
5,ACACTCACACGAACGACTGACTTTTGTAGCCACACCACCTCGGAGTCACCTAGTGCAG,9430 fluorescence intensity (a.u.)
6,GGGTTCCGTCCATTCCGCGCCGTTAAATGCATGTTCATTCCGGAGTCACCTAGTGCAG,10800 fluorescence intensity (a.u.)
7,CCCTCCCGCCTATTCGTCCGCCGCCTCAACCGGGACACCGCGGAGTCACCTAGTGCAG,8580 fluorescence intensity (a.u.)
8,GTCATTGTGCCCTGCAGCCTGTCTTGTTTCAAAATATAATCGGAGTCACCTAGTGCAG,9970 fluorescence intensity (a.u.)
9,GCCCATTTTCCCAACCCACCTCTCTCGTTTTCCGCACGTACGGAGTCACCTAGTGCAG,10700 fluorescence intensity (a.u.)
10,CCATTTGCTCGCTGTTTAACGTCCTTCCATCAACCATGTGCGGAGTCACCTAGTGCAG,10700 fluorescence intensity (a.u.)
11,ATAATTTATTTGGTCACTTCCATGTTCATGACTAGTCTTCCGGAGTCACCTAGTGCAG,9480 fluorescence intensity (a.u.)
12,GTCTGCTTATGATGCTTCGTTCTCTCCGCGCTCCGTGTCCCGGAGTCACCTAGTGCAG,8620 fluorescence intensity (a.u.)
13,GGATAGCCGGAACGCGAAGCGGGAGGAGGCGGTGGCGGGGCGGAGTCACCTAGTGCAG,10500 fluorescence intensity (a.u.)
14,AGACCATGTTCAACTTCATCTACCGTCTTAAATTTGACTTCGGAGTCACCTAGTGCAG,8420 fluorescence intensity (a.u.)
15,GTAGTAGTTCTTTTTTCCTTCCGAGATCTTCCATAGTCACCGGAGTCACCTAGTGCAG,10500 fluorescence intensity (a.u.)
16,AGCTTGTTGCATTTCCTGCTTCTTACTGCTACGAATTGTTCGGAGTCACCTAGTGCAG,8560 fluorescence intensity (a.u.)
17,TTCCAGTATTTCTCGTCGCTCTCGATGCAATTGAAAAAAACGGAGTCACCTAGTGCAG,8710 fluorescence intensity (a.u.)
18,TATTATTATTATTATTATTATCATGCCCTGTTCCTTTTTTCGGAGTCACCTAGTGCAG,8710 fluorescence intensity (a.u.)
19,TACTACTACCCATGGTCCTGGAATTTTCACCCGCATCTGCCGGAGTCACCTAGTGCAG,8300 fluorescence intensity (a.u.)
20,ACATGCCATTTCTATTTACTCCTATCAACTCTCATCAATGCGGAGTCACCTAGTGCAG,9810 fluorescence intensity (a.u.)
21,TTGCATGTCTTTCTGAGAAATTTTTTCAGTTGAATTTATCCGGAGTCACCTAGTGCAG,8130 fluorescence intensity (a.u.)

# Two records picked at random from those above, as already listed:
row,Sequence,binding signal
20,ACATGCCATTTCTATTTACTCCTATCAACTCTCATCAATGCGGAGTCACCTAGTGCAG,9810 fluorescence intensity (a.u.)
7,GCGGCGCCTCCTGTTTCGCCCCAACCCCGTCCTTCTCCTCCGGAGTCACCTAGTGCAG,8540 fluorescence intensity (a.u.)
